PMC5949353
Results are given in words; binding and its absence hold for the method and conditions named. Binding seen in cells or lysates may run through a third protein. Binding can be weak; no strength is given.

Protein sequences, listed by entry. Tags and fused reporters are not part of them. Lines headed by an entry give the natural chain unless they say otherwise; changes in a name come on top.
UniProt Q13153: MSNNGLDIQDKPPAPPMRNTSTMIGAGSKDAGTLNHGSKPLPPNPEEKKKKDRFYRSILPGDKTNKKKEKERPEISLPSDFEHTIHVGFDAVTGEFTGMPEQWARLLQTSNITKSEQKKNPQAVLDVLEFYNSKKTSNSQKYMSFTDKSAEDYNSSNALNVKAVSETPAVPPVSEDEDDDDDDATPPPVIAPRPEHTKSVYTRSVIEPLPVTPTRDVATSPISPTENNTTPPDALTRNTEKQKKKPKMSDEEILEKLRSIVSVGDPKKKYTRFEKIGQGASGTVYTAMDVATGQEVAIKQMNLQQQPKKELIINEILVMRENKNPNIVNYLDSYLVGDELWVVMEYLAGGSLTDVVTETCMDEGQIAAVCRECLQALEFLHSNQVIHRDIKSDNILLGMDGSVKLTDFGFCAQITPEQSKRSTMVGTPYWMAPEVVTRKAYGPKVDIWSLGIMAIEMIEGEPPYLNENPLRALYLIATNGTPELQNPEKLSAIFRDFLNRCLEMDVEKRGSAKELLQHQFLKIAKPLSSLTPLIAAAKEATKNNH
UniProt Q9BST9: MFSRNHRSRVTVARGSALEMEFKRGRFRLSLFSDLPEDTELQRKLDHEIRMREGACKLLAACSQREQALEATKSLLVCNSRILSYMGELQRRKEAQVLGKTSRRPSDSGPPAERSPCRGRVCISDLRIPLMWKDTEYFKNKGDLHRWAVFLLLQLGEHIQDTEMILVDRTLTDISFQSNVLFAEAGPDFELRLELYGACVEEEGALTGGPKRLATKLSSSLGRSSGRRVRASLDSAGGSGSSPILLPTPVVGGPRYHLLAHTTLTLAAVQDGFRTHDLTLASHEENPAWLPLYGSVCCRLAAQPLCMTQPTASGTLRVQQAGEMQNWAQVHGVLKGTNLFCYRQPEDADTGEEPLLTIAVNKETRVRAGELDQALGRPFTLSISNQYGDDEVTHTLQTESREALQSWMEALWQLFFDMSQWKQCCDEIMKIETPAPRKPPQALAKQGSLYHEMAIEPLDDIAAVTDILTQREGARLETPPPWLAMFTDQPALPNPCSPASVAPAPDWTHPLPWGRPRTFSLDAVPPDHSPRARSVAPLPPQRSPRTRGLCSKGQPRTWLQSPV
UniProt P60766: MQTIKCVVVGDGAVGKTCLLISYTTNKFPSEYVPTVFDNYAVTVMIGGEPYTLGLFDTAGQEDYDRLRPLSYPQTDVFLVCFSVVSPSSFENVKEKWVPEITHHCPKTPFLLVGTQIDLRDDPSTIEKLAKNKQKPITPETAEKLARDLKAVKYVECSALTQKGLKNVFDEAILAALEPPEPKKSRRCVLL
UniProt Q9QUI0: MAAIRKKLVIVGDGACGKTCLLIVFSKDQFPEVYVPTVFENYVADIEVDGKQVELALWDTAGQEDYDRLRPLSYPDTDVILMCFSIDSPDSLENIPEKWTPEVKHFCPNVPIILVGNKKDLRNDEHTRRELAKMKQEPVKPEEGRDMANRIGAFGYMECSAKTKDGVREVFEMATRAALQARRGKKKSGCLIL

How the values were obtained:
[1] = biological target: GST-P21 activated kinase (recombinant protein with the binding domain from PAK1) (UniProt Q13153); assay: pull-down; GST-PAK, GST-RTKN or GST on glutathione-agarose beads incubated overnight at 4°C with lysates of E16 cortices from WT or C3 KO embryos (50 mM Tris-HCl pH 7.5, 150 mM NaCl, 1 mM EDTA, 1 mM EGTA, 1% Triton X-100); washed three times with NETN buffer; western blot; only the target purified
[2] = biological target: GST-RHOTEKIN (recombinant protein with the binding domain from Rhotekin) (UniProt Q9BST9); assay: as above

| binding [1] | binding [2] | Substance |
| --- | --- | --- |
| binds | – | Cdc42 (from UniProt P60766 1-191) |
| – | binds | RhoA (from UniProt Q9QUI0 1-193) |
